For 20 targets, log2 fold change results are on record in the supplement of paper PMC10849652.

Protein sequences, listed by entry. Tags and fused reporters are not part of them. Lines headed by an entry give the natural chain unless they say otherwise; changes in a name come on top.
UniProt P36956: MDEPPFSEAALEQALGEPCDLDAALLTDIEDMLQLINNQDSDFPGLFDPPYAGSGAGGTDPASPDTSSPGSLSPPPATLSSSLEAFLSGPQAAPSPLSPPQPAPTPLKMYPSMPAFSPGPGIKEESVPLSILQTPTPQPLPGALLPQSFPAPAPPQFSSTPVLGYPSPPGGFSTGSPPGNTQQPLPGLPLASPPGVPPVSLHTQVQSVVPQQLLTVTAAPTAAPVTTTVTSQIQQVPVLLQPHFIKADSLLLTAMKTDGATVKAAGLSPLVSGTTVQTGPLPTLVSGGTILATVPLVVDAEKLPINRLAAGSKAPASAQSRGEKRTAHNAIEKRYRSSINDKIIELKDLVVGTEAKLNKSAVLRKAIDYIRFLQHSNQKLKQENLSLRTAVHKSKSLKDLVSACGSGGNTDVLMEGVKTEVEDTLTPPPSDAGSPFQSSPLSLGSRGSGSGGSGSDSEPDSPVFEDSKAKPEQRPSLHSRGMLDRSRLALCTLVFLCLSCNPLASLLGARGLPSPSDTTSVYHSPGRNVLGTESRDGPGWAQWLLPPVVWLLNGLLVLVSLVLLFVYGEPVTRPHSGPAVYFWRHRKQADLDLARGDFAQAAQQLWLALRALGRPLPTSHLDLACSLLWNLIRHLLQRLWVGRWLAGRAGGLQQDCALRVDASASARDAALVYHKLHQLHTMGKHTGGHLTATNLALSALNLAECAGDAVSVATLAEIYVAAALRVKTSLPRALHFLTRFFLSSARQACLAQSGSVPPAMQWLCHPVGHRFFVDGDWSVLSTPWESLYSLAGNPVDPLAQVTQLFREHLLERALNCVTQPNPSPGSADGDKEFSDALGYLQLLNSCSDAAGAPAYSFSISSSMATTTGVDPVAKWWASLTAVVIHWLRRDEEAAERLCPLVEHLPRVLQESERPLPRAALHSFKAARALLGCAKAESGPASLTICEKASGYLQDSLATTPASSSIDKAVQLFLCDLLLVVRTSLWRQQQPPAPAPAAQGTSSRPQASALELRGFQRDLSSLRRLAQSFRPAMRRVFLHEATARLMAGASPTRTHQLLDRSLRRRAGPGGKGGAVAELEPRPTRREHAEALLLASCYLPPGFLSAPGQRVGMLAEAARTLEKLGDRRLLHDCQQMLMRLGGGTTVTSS
UniProt Q86XZ4: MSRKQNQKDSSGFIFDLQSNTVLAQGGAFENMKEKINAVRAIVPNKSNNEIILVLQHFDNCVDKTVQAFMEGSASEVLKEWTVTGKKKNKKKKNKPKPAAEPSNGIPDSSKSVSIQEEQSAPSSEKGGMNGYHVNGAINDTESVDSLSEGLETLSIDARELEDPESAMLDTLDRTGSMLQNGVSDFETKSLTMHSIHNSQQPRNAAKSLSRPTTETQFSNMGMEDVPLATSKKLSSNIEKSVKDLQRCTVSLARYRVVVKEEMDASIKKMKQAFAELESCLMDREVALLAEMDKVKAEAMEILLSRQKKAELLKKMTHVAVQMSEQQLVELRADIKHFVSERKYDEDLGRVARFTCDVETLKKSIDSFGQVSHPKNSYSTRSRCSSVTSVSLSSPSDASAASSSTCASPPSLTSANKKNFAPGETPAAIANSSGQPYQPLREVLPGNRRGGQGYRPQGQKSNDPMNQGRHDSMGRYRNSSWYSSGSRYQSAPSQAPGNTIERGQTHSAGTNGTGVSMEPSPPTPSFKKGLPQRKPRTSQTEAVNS
UniProt Q9NY15: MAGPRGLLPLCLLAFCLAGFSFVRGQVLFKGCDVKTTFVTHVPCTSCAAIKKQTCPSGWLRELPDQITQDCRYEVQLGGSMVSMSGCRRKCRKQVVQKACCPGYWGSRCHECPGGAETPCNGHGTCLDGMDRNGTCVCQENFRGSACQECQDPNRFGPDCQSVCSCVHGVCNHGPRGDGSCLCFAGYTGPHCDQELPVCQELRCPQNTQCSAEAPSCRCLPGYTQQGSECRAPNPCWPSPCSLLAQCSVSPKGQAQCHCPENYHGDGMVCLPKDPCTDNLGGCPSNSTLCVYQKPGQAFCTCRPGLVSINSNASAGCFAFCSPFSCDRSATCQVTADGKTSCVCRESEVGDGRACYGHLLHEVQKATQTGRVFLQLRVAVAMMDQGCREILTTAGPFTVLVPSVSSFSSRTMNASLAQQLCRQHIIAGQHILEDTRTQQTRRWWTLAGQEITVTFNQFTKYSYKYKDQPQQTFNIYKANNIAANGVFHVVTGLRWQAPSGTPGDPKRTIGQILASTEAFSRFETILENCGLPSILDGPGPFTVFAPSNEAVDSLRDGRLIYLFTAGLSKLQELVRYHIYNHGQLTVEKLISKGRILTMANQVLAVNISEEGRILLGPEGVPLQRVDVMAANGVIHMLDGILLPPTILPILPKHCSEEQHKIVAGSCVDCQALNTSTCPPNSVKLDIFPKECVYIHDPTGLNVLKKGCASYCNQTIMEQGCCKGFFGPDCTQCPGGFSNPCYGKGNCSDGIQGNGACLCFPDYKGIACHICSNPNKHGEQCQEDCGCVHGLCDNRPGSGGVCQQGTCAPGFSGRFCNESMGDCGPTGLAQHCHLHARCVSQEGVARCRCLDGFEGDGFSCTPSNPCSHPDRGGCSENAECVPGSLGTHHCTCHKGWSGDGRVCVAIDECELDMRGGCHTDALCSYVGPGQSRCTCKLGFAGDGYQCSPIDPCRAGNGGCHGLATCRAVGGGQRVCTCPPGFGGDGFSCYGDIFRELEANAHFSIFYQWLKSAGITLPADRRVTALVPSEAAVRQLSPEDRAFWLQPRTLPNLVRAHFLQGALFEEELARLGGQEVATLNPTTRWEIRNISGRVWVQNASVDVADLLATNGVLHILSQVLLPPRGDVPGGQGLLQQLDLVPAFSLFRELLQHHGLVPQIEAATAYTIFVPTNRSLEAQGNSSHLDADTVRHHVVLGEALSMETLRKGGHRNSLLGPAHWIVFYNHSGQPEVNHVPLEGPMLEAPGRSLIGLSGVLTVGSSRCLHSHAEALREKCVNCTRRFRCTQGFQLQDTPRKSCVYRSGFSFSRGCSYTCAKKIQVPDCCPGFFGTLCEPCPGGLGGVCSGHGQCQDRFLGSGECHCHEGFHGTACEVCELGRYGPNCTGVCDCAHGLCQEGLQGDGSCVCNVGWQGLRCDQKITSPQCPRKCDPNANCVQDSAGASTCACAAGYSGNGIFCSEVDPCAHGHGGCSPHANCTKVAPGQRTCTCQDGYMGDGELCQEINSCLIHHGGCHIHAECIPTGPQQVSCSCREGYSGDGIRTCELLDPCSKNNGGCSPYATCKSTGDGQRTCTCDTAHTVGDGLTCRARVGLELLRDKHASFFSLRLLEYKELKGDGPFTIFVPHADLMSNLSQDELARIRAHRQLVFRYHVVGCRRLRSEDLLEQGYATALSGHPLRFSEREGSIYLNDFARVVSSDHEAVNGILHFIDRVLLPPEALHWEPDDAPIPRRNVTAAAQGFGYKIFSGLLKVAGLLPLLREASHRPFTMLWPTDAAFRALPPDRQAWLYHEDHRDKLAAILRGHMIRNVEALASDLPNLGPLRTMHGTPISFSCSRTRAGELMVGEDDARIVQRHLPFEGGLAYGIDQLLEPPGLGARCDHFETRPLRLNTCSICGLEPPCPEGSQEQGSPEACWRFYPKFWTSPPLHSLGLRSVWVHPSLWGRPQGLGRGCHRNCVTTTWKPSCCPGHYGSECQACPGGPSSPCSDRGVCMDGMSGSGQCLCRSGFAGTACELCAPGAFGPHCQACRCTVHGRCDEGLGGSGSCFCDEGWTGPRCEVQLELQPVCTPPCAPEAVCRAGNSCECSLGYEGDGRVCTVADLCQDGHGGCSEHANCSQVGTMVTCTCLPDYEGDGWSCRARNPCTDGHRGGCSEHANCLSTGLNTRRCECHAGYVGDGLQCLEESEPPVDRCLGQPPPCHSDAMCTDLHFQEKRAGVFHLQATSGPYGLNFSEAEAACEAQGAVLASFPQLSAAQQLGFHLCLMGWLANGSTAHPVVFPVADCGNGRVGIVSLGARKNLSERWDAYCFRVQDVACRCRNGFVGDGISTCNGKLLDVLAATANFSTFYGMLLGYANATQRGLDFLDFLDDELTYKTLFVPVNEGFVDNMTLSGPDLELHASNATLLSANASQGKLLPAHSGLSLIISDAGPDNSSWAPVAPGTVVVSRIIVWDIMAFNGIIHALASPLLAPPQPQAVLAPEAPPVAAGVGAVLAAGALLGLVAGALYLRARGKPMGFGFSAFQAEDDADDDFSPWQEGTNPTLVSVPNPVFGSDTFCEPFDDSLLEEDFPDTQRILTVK
UniProt Q15532, whole entry, looked up: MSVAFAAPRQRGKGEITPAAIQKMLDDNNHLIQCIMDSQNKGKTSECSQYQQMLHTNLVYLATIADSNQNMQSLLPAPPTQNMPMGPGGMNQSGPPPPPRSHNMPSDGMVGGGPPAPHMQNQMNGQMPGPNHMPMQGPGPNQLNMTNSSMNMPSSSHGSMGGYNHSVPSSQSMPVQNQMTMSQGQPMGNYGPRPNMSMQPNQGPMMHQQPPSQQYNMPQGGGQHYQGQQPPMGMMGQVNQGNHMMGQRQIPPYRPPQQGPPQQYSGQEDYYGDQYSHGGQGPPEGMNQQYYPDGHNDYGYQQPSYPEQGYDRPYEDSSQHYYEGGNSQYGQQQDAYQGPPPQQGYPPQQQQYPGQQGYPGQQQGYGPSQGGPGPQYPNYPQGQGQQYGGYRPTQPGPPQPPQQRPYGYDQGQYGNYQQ
UniProt Q9BYN0: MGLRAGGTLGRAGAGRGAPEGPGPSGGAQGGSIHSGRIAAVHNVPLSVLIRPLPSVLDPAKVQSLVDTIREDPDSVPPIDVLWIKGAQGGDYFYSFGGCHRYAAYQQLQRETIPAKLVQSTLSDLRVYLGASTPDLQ
UniProt Q12772: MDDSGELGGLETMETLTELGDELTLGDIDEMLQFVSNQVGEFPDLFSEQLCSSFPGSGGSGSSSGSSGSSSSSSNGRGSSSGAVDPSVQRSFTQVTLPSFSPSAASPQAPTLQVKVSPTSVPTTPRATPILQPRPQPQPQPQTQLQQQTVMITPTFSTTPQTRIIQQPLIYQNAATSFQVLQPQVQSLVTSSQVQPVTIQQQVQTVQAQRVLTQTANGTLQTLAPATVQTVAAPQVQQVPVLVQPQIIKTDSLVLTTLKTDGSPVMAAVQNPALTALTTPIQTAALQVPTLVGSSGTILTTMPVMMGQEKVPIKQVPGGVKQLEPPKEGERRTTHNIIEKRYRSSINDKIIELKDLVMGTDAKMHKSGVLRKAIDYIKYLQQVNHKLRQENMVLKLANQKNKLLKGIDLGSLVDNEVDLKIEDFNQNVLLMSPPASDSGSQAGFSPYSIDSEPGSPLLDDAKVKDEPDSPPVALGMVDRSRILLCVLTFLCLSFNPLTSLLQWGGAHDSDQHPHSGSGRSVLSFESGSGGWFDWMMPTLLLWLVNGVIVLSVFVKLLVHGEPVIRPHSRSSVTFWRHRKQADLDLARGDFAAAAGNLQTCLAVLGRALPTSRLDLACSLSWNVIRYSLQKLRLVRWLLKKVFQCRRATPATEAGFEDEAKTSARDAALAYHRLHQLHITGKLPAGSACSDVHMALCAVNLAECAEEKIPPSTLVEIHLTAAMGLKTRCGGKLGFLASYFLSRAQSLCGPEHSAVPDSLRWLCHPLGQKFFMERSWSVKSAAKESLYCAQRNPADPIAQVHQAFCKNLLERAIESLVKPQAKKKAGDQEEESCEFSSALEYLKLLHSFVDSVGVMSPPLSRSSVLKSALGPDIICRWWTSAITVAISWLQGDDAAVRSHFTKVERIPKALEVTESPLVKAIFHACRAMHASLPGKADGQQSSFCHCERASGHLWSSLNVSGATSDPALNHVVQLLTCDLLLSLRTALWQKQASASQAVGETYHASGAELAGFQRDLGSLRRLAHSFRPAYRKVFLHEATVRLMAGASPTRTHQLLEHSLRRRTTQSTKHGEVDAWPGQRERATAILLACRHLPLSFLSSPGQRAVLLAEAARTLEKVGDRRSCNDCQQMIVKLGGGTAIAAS
UniProt O43278: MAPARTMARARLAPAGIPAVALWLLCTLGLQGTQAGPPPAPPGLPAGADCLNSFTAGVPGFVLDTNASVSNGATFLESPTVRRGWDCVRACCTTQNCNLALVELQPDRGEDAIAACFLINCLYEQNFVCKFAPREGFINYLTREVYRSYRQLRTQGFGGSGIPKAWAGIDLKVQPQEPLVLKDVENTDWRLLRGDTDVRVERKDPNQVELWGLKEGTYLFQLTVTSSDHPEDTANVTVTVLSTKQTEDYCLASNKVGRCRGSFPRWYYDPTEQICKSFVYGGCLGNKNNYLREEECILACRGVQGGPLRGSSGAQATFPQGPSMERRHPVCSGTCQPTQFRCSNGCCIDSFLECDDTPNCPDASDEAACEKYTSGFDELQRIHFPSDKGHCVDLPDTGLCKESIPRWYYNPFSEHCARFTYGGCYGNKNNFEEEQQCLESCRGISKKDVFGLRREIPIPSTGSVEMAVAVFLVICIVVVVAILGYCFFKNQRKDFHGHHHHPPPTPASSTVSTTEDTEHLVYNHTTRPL

The list shows a part of the results.

Compound in the first test: CN1CCN(CCOc2cc(OC3CCOCC3)c3c(Nc4c(Cl)ccc5c4OCO5)ncnc3c2)CC1 [saracatinib]
Description: log2 fold change, soluble protein after heating vs DMSO (PISA); higher = thermal stabilisation; K562 cells, 10 uM, 30 min; active = over 0.2 and 3.5 SD of the protein, either way, in both replicates (recomputed). The method, boiled down:
(§1)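 K562 cells (2×10^6 cells/mL) were treated with 10 μM compound for 30 min, and aliquots were heated for 3 min over 48°C-58°C. Pooled aliquots were extracted in PBS with 0.5% NP-40 at 4°C, and the supernatant after 21,000xg for 90 min was measured by TMTpro 16plex LC-MS/MS with channel sums equalised. Reported thermal stability, relative to control samples and from duplicates, is a log2 fold change.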
For the target SREBF1 isoform 4 (UniProt P36956), the log2 fold change is inactive: 0.077.

On to SPEN (UniProt Q96T58), for which the log2 fold change is inactive: 0.04. Turning to SPATS2 (UniProt Q86XZ4), the log2 fold change was inactive: 0.064. Take STARD10 (UniProt Q9Y365): the log2 fold change is inactive: 0.086. In the case of SRSF9 (UniProt Q13242), the log2 fold change was inactive: 0.022. Turning to ST3GAL1 (UniProt Q11201), the log2 fold change is inactive: 0.061.

Consider STAB1 (UniProt Q9NY15), for which the log2 fold change was inactive: -0.016.

Consider SQOR (UniProt Q9Y6N5), for which the log2 fold change is inactive: 0.189. Consider SSB (UniProt E7ERC4), for which the log2 fold change is inactive: -0.05. As to SS18 (UniProt Q15532), the log2 fold change is inactive: -0.127.

Compound in the next test: CN1CCN(c2nc(C3=C(c4c[nH]c5ccccc45)C(=O)NC3=O)c3ccccc3n2)CC1 [sotrastaurin]
The description is as above. The method, boiled down:
as §1
SRXN1 (UniProt Q9BYN0): the log2 fold change is inactive: 0.019. SRRD (UniProt Q9UH36): the log2 fold change was inactive: 0.05.

Consider SREBF2 (UniProt Q12772), for which the log2 fold change is inactive: -0.017. ST8SIA6 (UniProt P61647): the log2 fold change was inactive: 0.027. STK24 (UniProt Q9Y6E0): the log2 fold change was inactive: 0.082.

For the target SRC isoform 2 (UniProt P12931), the log2 fold change was inactive: -0.167. Same read-out and setting: under SPINT1 (UniProt O43278) stands inactive: 0.183; under ST3GAL4 isoform 4 (UniProt Q11206), inactive: 0.12. For the target STARD10 (UniProt Q9Y365), the log2 fold change was inactive: -0.115. On the same count and under the same terms, the value for SRSF9 (UniProt Q13242) was inactive: -0.015.

Consider SQOR (UniProt Q9Y6N5), for which the log2 fold change was inactive: 0.18. Same read-out and setting: under SSH2 (UniProt Q76I76) stands inactive: 0.031; under SPHK2 isoform 5 (UniProt Q9NRA0), inactive: -0.007.
